{
  "source": "patent US7196084B2",
  "about": "“Cdc25 phosphatase inhibitors” (Societe de Conseils de Recherches et d'Applications …, priority 2000, dated 2007)",
  "target": "T1, MBP-Cdc25C protein (Homo sapiens, UniProt P30307)",
  "T1 construct": "made in house",
  "T1 sequence (P30307 1-473)": "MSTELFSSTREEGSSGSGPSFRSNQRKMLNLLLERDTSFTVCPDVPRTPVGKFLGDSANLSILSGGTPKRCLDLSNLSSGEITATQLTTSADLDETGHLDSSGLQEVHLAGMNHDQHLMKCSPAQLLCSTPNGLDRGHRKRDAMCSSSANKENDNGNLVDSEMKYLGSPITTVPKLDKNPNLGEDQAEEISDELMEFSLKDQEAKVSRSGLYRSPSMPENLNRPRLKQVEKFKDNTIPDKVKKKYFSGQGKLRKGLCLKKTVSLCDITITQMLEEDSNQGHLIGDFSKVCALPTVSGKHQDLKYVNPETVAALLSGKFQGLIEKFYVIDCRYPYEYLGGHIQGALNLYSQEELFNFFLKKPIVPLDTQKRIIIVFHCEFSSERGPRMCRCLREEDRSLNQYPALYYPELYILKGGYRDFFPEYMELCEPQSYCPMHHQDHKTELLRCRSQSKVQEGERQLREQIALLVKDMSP",
  "test": "Phosphatase activity of the purified Cdc25C recombinant enzyme (OMFP dephosphorylation, fluorescence)",
  "type": "biochemical",
  "conditions": "read-out: IC50 on the phosphatase activity of the purified Cdc25-C recombinant enzyme; OMFP 500 μM, 4 hours at 30° C., three independent experiments",
  "note": "pIC50: −log10 of the molar value. Some of these results come from one statement about several compounds together.",
  "data": [
    {"smiles": "CCOP(=O)(OCC)Oc1ccc(CCNC(=O)c2cc3cc(O)ccc3cc2O)cc1", "note": "[Example 13, diethyl 4-{2-[(3,7-dihydroxy-2-naphthoyl)amino]ethyl}phenylphosphate]", "values": [
      {"measurement": "pIC50", "result": "≥ 4.00"}
    ]}
  ]
}
